This passage reports binding results from patent publication US10526611.

Chains of the proteins cited; added tags and fusions are not shown.
UniProt Q96321: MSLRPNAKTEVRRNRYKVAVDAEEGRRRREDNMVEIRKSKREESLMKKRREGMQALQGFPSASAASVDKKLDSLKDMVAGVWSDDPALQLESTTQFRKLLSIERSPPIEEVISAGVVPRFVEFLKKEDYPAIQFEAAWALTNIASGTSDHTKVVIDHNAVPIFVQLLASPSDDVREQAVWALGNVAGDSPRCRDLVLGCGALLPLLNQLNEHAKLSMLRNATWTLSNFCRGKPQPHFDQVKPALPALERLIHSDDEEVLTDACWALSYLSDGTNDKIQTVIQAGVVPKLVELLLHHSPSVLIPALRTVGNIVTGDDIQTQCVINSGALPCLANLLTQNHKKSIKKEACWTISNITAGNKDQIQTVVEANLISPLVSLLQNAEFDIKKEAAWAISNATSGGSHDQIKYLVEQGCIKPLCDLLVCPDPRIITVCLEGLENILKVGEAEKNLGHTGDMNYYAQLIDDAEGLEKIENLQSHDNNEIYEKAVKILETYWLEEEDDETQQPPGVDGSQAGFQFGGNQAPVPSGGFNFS
UniProt O80480: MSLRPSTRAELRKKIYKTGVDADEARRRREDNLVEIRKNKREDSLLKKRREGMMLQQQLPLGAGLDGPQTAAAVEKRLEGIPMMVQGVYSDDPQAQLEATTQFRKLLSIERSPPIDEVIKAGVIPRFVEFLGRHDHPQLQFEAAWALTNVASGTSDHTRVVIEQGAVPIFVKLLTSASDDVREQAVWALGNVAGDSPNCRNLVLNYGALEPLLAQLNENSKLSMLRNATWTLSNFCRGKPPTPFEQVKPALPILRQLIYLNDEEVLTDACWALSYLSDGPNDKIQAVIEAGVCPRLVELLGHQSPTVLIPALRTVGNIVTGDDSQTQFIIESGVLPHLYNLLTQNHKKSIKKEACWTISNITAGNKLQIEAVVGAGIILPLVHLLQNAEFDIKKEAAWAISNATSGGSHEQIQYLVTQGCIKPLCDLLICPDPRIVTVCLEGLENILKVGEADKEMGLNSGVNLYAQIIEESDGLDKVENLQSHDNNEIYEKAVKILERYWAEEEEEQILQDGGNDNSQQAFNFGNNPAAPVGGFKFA

In assay [1] the target is IMPa-1 (plant importin α) (UniProt Q96321). In words: BiFC in tobacco BY-2 cells.
The target in assay [2] is IMPa-4 (plant importin α) (UniProt O80480). Put plainly: BiFC in tobacco BY-2 cells.

These are yes or no findings as the source states them, for the method shown. Some entries that bind do so weakly or less than the wild type. Sequences can lack the tags named with a protein.

B1: LSH10 tagged with the N-terminal fragment of the autofluorescent protein Venus (LSH10-nVenus) (protein, not shown: large carriers)
chain: MSSPRERGKSLMESSGSEPPVTPSRYESQKRRDWNTFGQYLKNQRPPVPMSHCSCNHVLDFLRYLDQFGKTKVHVPGCMFYGQPEPPAPCTCPLRQAWGSLDALIGRLRAAYEENGGPPETNPFASGAIRVYLREVRECQAKARGIPYKKKKKKKPTPEMGGGREDSSSSSSSFSFS
B1: the binding entry in assay [1] and in assay [2] was “binds” throughout.
